Laboratory results: PMC1523230, “Structural Organization of the 19S Proteasome Lid: Insights from MS of Intact Complexes” (PLoS Biology, 2006)
No constants are given. Whether binding was seen depends on the method and setting. Binding seen in cells or lysates may run through a third protein. These calls come from enrichment with a bait or labelling near it, and not all partners need be listed.

T1: Rpn11^H12 (S. cerevisiae), P43588
T1 chain: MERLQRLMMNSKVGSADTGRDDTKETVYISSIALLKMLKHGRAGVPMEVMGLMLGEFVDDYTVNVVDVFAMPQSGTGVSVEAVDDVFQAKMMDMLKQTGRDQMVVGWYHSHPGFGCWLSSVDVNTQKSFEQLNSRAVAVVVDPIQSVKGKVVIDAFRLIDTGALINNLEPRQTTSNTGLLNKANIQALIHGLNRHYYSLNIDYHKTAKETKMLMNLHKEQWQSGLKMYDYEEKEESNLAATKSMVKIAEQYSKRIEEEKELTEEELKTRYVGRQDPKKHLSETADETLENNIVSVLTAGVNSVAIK


Molecular target: T1, Rpn11^H12 (S. cerevisiae), P43588
Assay: affinity purification with mass spectrometry; Rpn11^H12 held on Ni-NTA from yeast lysate, gel filtration; subunits identified by MALDI-TOF/TOF peptide mapping and database search
Conditions: remark: other sources report otherwise

Row | binding | Binder
1 | binds | Rpn9, Q04062 1-393 (protein) MFNNHEIDTILSTLRMEADPSLHPLFEQFEKFYEEKLWFQLSESLTKFFDDAKSTPLRLRLYDNFVSKFYDKINQLSVVKYLLASLKDSKDFDESLKYLDDLKAQFQELDSKKQRNNGSKDHGDGILLIDSEIARTYLLKNDLVKARDLLDDLEKTLDKKDSIPLRITNSFYSTNSQYFKFKNDFNSFYYTSLLYLSTLEPSTSITLAERQQLAYDLSISALLGDKIYNFGELLHHPIMETIVNDSNYDWLFQLLNALTVGDFDKFDSLIKVQISKIPILAQHESFLRQKICLMTLIETVFVKNIRMLSFEDISKATHLPKDNVEHLVMRAISLGLLKGSIDQVNELVTISWVQPRIISGDQITKMKDRLVEWNDQVEKLGKKMEARGQSIWV
2 | binds | Rpn12, P32496 1-274 (protein) MPSLAELTKSLSIAFENGDYAACEKLLPPIKIELIKNNLLIPDLSIQNDIYLNDLMITKRILEVGALASIQTFNFDSFENYFNQLKPYYFSNNHKLSESDKKSKLISLYLLNLLSQNNTTKFHSELQYLDKHIKNLEDDSLLSYPIKLDRWLMEGSYQKAWDLLQSGSQNISEFDSFTDILKSAIRDEIAKNTELSYDFLPLSNIKALLFFNNEKETEKFALERNWPIVNSKVYFNNQSKEKADYEDEMMHEEDQKTNIIEKAMDYAISIENIV
3 | binds | Rpn6, Q12377 1-434 (protein) MSLPGSKLEEARRLVNEKQYNEAEQVYLSLLDKDSSQSSAAAGASVDDKRRNEQETSILELGQLYVTMGAKDKLREFIPHSTEYMMQFAKSKTVKVLKTLIEKFEQVPDSLDDQIFVCEKSIEFAKREKRVFLKHSLSIKLATLHYQKKQYKDSLALINDLLREFKKLDDKPSLVDVHLLESKVYHKLRNLAKSKASLTAARTAANSIYCPTQTVAELDLMSGILHCEDKDYKTAFSYFFESFESYHNLTTHNSYEKACQVLKYMLLSKIMLNLIDDVKNILNAKYTKETYQSRGIDAMKAVAEAYNNRSLLDFNTALKQYEKELMGDELTRSHFNALYDTLLESNLCKIIEPFECVEISHISKIIGLDTQQVEGKLSQMILDKIFYGVLDQGNGWLYVYETPNQDATYDSALELVGQLNKVVDQLFEKASVLY
